# Experimental data from patent US10160766B1, “Benzopyranyl tetracycle compound and pharmaceutical composition having excellent anti-inflammatory effect comprising the same” (Spark Biopharma, Inc., priority 2017, dated 2018).
# “And” between values parts separate entries of the source, which are not always exact repeats. Identical values can stand only once. At least one read-out could not be matched to a standard name with certainty.
# Test system: NO release in Raw264.7 cells
# Experiment: Griess assay, inhibition of nitric oxide release
# Assay type: cell-based
# Details: 100 ng/mL LPS and compounds 24 hours, compared with control group
# Protocol: Thus, the Griess assay was used to measure nitric oxide secretion for inflammation inhibition in Raw264.7 cells.
# Raw 264.7 macrophage cell was cultured in Dulbecco Modified Eagle Medium (DMEM) with 10% (v/v) fetal bovine serum (FBS) and 1% (v/v) antibiotic-anti mycotic solution.
# Cell was maintained in a 100 mm cell culture dish under cell culture conditions (5% CO2 incubator at 37° C. with humidified atmosphere).
# Griess assay reagent was generated prior to the assay with the following contents listed below: N-(1-naphthyl) ethylenediamine dihydrochloride, 0.1% (m/v); sulfanilamide, 1% (m/v); phosphoric acid (85%); 5% (v/v) in deionized water.
# Raw 264.7 cell was seeded in transparent 96-well plate and maintained for 1 day. Media was aspirated, and each well was washed with serum free DMEM for twice. Each well was refilled with serum-free DMEM.
# Then 100 ng/mL LPS and compounds were treated afterward and cultured for 24 hours. […]
# Media-reagent mixture was incubated at room temperature for several minutes. Absorbance was read at 548 nm. […] Blank values were measured.
# Blank values were measured by mixing 50 μL of Griess assay reagent with […] and 1% antibiotic-antimycotic containing DMEM.
# As for the compounds in which the double bond of the tetrahydropyridazine ring in Compound 1d is moved or eliminated, the inhibition rate of NO release was measured in the same manner as in Test Example 2. […]
row,Compound,NO Inhibition rate (%)
1,COc1ccccc1-n1c(=O)n2n(c1=O)C1C(=CC2)C(C)(C)Oc2cc(O)ccc21 (centres unmarked) [Compound 2e],48% and 66%
2,CC1(C)Oc2cc(O)ccc2C2C1=CCn1c(=O)n(-c3ccccc3I)c(=O)n12 (centres unmarked) [Compound 2d],63% and 48%
